Experimental data: publication PMC3511013 (Beilstein Journal of Organic Chemistry, 2012)
HELM strings list residues between dots; [ac] is acetyl, [am] amide, other brackets name non-standard units.

Experiment: general procedure: Fmoc solid-phase peptide synthesis; Rink amide resin; Oxyma/DIC (double coupling); HATU/DIPEA for Cym2 or CF coupling
Settings: whole synthesis, analytical HPLC

Substance	purity (crude or final not stated) [%]
PEPTIDE1{[Cbl].G.F.L.G.L.R.K.R.L.R.K.F.R.N.K.I.K.E.K.[am]}|PEPTIDE2{[Cbl].G.F.L.G.L.R.K.R.L.R.K.F.R.N.K.I.K.E.K}$PEPTIDE1,PEPTIDE2,8:R3-20:R2$$$V2.0	>95
PEPTIDE1{K.L.A.K.L.A.K.K.L.A.K.L.A.K.G.F.L.G.L.R.K.R.L.R.K.F.R.N.K.I.K.E.K.[am]}|PEPTIDE2{G.L.R.K.R.L.R.K.F.R.N.K.I.K.E.K}$PEPTIDE1,PEPTIDE2,21:R3-16:R2$$$V2.0	>99
Cym2-GFLGLRKRLRKFRNKIKEK-NH2 Cym2-GFLGLRKRLRKFRNKIKEK	>90
Cym2-GFLGLRKRLRKFRNKIKEK-NH2 GLRKRLRKFRNKIKEK	>95
